For 1 compound, LD50 results are on record in patent EP0139627A1, “Process for the preparation of 5,10-dihydro-1H-dibenzo [B,E] [1,4] diazepin-11-ones substituted in position 5” (ARZNEIMITTELWERK DRESDEN GmbH, priority 1983, dated 1985).

The data set can be described thus: in vivo. The following applies: mouse, po. The source says:
Die akute Toxizität wurde an jeweils 5 männlichen und 5 weiblichen Mäusen im Gewicht von 18 - 23 Gramm pro dosi bestimmt. Die Applikation der Prüfsubstanzen erfolgte oral. Die Berechnung der LD50 wurde nach Litchfield und Wilcoxon durchgeführt.

The structures appear in SMILES notation.

For the compound `CN1C2CCC1CC(OC(=O)C(CO)c1ccccc1)C2` (racemic) [Atropin, reference compound], the LD50 came to 850 mg/kg.
